Results as given in patent publication US12023396B2, “Flavour and fragrance compositions comprising acetophenone derivatives” (Symrise AG, priority 2014, dated 2024).

Assay: Reduction of bathroom malodour, expert panel, filter paper in glass jar
Method: Fifteen Expert panellists evaluated the samples from 500 ml wide necked glass jars. One microliter of the sample (dissolved in 9 microliters of diethylphatlate) and one microliter bathroom malodour (1% solution in Triethyl citrate) were injected on different places of a filter paper. The filter paper was placed in the glass jar and left closed for >16 hours for equilibration. Malodour intensities were evaluated on scales of 1 (odourless) to 9 (very strong) with 6 being the reference of the malodour sample. Mean and standard deviation of intensity scores were calculated from three independent experiments.

CC(=O)c1ccc(O)cc1 [4-hydroxyacetophenone]
Reduction versus malodour standard (difference to malodour standard score 6.00): 3.50 scores | Malodour intensity scores Mean (n = 15) (scale 1 (odourless) to 9 (very strong), malodour reference = 6, >16 hours equilibration): 2.50
